Out of some 310,000 compounds screened, about 17,000 (5.5%) were called active. The inconclusive results got no clear call from the source; some entries with a clear call stand among them for comparison. The call rests on the fitted dose curve; in most records, active means well fitted inhibition curve with a large enough effect; inconclusive means small, poorly fitted or top-dose-only effect, or effect the other way; inactive means no such curve, though single readings can be large or run the other way. Where the call is inconclusive, the potency comes from a doubtful curve fit.
target: Nuclear receptor ROR-gamma (Mus musculus) (UniProt P51450); experiment: qHTS for inhibitors of ROR gamma transcriptional activity; details: Drosophila S2 Gal4-RORgamma UAS-luciferase reporter, 20 h; activity change, negative = inhibition: at 53.6 µM (top of the series); further: nearly all actives have a fitted effect of over 60% in size
In short: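 Stably transfected Drosophila Schneider cells are the test system, with ROR gamma fused to Gal4 and luciferase under UAS control; luminescence is read after 20 hr of 700 uM copper sulfate induction at ambient temperature.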
On the % scale 0 is the no-effect control and ±100 the full control effect; potency means the concentration at half of the fitted maximal effect.

Sequences of proteins named here, by UniProt entry; tags and fusion partners are left off. A change or cut given only in a name is not applied to a line headed by its entry.
UniProt P51450: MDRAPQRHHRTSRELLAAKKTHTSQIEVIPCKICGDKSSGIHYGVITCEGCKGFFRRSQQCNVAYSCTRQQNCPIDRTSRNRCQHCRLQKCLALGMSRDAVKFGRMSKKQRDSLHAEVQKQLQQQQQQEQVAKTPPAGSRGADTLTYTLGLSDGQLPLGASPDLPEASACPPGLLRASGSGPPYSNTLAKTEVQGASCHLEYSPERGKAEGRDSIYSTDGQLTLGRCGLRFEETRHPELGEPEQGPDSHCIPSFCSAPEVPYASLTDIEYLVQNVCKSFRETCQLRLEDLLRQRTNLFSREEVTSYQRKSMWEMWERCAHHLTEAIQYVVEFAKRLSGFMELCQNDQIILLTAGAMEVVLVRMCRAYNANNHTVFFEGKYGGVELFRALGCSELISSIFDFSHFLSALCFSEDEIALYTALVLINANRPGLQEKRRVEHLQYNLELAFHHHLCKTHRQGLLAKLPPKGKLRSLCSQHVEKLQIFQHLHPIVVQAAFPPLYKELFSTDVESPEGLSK

Potency, inconclusive:
CC(C)Nc1ncnc2c1cnn2-c1ccc(Cl)cc1 25.1 µM [inhibitor, single point], CCOC(=O)c1csc(NC(=O)c2ccc(S(=O)(=O)N(CC)CC)cc2)n1 3.16 µM [activator, partial curve], CCOc1[nH]n(-c2ccccc2)c(=O)c1C=NCC(=O)OC 6.31 µM [inhibitor, single point], Cc1cc(NS(=O)(=O)c2ccc(NC(=O)C(C)Oc3cc(C)c(Cl)c(C)c3)cc2)no1 (centres undefined) 35.5 µM [activator, single point], CCN(CC)S(=O)(=O)c1ccc(C(=O)NCCSc2c[nH]c3ccccc23)cc1 31.6 µM [activator, single point], Cc1ccc(C(=O)Oc2coc(CSc3nnc(NC(=O)C4CC4)s3)cc2=O)cc1 20 µM [activator, partial curve], O=c1[nH]c(-c2ccccc2F)nc2c1sc(=S)n2Cc1ccccc1 35.5 µM [activator, single point], O=C(Cc1ccc(Br)cc1)Nc1ncc([N+](=O)[O-])s1 4.47 µM [activator, single point], COc1ccccc1CC(=O)NNS(=O)(=O)c1ccccc1[N+](=O)[O-] 12.6 µM [activator, single point], CCC(=O)Nc1c(C(=O)N2CCN(c3ccccn3)CC2)cnn1-c1ccc(C)cc1 35.5 µM [activator, single point], COc1ccc(CNC(=O)c2ccc(=O)oc2)cc1OC 3.16 µM [inhibitor, single point], Cc1cccc(CS(=O)(=O)Cc2ccc(C(=O)NCc3cccs3)o2)c1 15.8 µM [activator, partial curve], Cc1ccc(C)c(NC(=S)NNC(=O)c2ccc(Br)o2)c1 0.0891 µM [inhibitor, full curve, poor fit], NC(=O)c1cc(-c2ccccc2)sc1NC(=O)CN1CCCCC1 3.55 µM [inhibitor, partial curve, poor fit], Clc1ccc(OCc2nnc(SCc3nc4ccccc4[nH]3)n2Cc2ccco2)cc1 10 µM [inhibitor, partial curve, poor fit], O=C(CSc1ccc(Br)cc1)N1CCN(S(=O)(=O)c2ccccc2)CC1 35.5 µM [activator, single point], CC(C)(C)c1ccc(C(=O)c2c[nH]c(C(=O)NCc3cccnc3)c2)cc1 22.4 µM [activator, single point], COc1ccc(NC(=O)CNS(=O)(=O)c2ccccc2)cc1Cl 2.24 µM [activator, single point], Cc1cc(/C=N/NC(=O)c2ccncc2)c(C)n1-c1cccc(C(F)(F)F)c1 20 µM [inhibitor, single point], O=C(CSc1nnc(NC(=O)c2c(F)cccc2F)s1)Nc1ccccc1F 0.501 µM [activator, full curve, poor fit], CCOC(=O)c1cnc(SC2CC(=O)N(c3ccc(OC)c(OC)c3)C2=O)nc1N (centres undefined) 35.5 µM [inhibitor, single point], Cc1ccc(S(=O)(=O)NCCN=C(CN2CCOCC2)NS(=O)(=O)c2ccc(C)cc2)cc1 6.31 µM [inhibitor, single point], COc1ccc2nc(Nc3ccccc3OC)sc2c1 10 µM [inhibitor, partial curve, poor fit], Cn1c(-c2ccc(Cl)cc2)cnc1N 35.5 µM [inhibitor, single point], COc1ccc(OC(=O)c2c(C)nn(-c3ccccc3)c2C)cc1 14.1 µM [activator, partial curve, poor fit], Cc1cccc(-n2c(=O)c3ccccc3n3c(=S)[nH]nc23)c1C 35.5 µM [inhibitor, single point], COC(=O)C(C)Sc1nc2c([nH]c3ccccc32)c(=O)n1C (centres undefined) 14.1 µM [inhibitor, single point], NCCCCCc1nnc(SCc2ccc(Cl)c(Cl)c2)o1 14.1 µM [inhibitor, single point]

Potency, active:
CC1(C)CC(C)(O)N(Cc2ccccc2)C(=S)N1 (centres undefined) 12.6 µM, Cc1ccc(C(=O)Cn2c3c(sc2=N)CCCC3)cc1 0.794 µM, CCCc1ccc(-c2cc(C(=O)NC3=NCCS3)c3ccccc3n2)cc1 1.78 µM, CCCN1CNC(=S)N(Cc2ccccc2)C1 5.62 µM, Cc1cccc(-n2c(CCn3nc(C)c([N+](=O)[O-])c3C)n[nH]c2=S)c1 12.6 µM, COc1ccc(CC(=O)NCC(=O)N/N=C/c2cc(Br)ccc2OC)cc1 10 µM, Cc1ccccc1-n1c(C)nc2ccccc21 11.2 µM, CC(C)CCC(CCNCc1ccccn1)c1ccc(Cl)cc1 (centres undefined) 11.2 µM, CC(C)N1C(=S)N(Cc2ccco2)C(=O)C1CC(=O)Nc1ccccc1 (centres undefined) 17.8 µM, CC(C)(C)c1ccccc1NC(=S)NC1CCCC1 4.47 µM

Activity change, negative = inhibition, inactive:
O=C(NCc1cc(F)cc2c1OCCO2)[C@H]1C[C@@H]1[C@H](NP(=O)(c1ccccc1)c1ccccc1)c1ccccc1 -0.97%, CCOC(=O)N1CCc2c(sc(NC(=O)CN3CCOCC3)c2C#N)C1 -15.8%, N#Cc1c(Sc2ncc(C(F)(F)F)cc2Cl)nsc1C/C=N\OCc1ccccc1Br 27.6%, CN(C)S(=O)(=O)c1ccc(C(=O)Nc2nc(-c3cccs3)cs2)cc1 2.85%, COc1ccccc1[C@H]1C(c2ccc(F)cc2)=NN(c2ccccc2)[C@@H]1CO 1.41%, Cc1ccccc1OCC(=O)NC(=S)Nc1ccc2c3c(cccc13)CC2 2.29%

Reference: PubChem BioAssay AID2551 (National Center for Advancing Translational Sciences (NCATS), 2010)
